The numbers were not newly measured in patent publication US8236818B2, “Substituted imidazopyridine derivatives as melanocortin-4 receptor antagonists” (Santhera Pharmaceuticals (Schweiz) AG, priority 2007, dated 2012), which cites them from elsewhere.

The conditions of this data set: control compounds of the Caco-2 assay; Zhao et al. 2001; cited from earlier work.

In the case of `CC(C)NCC(O)COc1ccc(CC(N)=O)cc1` (stereo not shown) [atenolol], the human absorption result is reported as “approximately 50%”.
